Measurements taken from the supplement of paper PMC10849652.
The list shows a part of the results.

The chains behind the UniProt entries cited, without tags or fusion partners. Where a name states a change or a piece, a line headed by the entry shows the natural chain unless it says otherwise.
UniProt Q9P013: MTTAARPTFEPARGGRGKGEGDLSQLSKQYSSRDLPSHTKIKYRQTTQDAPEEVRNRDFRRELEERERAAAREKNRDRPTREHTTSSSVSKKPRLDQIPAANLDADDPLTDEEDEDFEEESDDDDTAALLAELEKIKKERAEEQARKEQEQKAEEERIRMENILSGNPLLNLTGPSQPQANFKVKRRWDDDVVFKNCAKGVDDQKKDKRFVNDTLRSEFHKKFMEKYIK
UniProt Q8WYA6: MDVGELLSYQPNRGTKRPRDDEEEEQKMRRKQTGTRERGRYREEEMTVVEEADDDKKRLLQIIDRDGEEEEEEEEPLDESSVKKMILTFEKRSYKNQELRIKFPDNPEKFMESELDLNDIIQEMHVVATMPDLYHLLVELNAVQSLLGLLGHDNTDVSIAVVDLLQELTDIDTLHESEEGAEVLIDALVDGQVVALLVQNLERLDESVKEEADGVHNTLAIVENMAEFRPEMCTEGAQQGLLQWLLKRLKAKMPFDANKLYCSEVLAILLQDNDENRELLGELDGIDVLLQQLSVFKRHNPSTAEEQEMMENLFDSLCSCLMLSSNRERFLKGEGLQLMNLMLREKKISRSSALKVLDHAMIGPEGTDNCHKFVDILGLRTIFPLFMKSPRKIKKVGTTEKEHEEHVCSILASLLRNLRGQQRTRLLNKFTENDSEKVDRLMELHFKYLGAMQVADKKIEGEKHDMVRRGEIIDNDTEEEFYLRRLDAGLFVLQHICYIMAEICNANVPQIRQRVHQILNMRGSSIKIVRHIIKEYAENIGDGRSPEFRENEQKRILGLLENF
UniProt Q9NRF8: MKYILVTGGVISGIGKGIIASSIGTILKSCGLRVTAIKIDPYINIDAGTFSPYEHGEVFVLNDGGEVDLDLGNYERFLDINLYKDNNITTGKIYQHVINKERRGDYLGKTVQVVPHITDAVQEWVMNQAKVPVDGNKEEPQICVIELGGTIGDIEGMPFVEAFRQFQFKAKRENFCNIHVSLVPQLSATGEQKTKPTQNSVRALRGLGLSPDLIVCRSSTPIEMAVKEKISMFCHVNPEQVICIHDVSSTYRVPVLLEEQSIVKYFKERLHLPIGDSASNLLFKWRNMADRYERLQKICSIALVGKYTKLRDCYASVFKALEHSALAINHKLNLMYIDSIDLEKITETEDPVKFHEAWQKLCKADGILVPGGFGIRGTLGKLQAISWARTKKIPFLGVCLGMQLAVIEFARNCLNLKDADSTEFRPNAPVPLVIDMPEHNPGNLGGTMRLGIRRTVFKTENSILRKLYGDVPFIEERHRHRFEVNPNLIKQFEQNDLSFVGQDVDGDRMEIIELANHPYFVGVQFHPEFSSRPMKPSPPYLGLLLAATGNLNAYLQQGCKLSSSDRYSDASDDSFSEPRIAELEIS
UniProt Q1MSJ5: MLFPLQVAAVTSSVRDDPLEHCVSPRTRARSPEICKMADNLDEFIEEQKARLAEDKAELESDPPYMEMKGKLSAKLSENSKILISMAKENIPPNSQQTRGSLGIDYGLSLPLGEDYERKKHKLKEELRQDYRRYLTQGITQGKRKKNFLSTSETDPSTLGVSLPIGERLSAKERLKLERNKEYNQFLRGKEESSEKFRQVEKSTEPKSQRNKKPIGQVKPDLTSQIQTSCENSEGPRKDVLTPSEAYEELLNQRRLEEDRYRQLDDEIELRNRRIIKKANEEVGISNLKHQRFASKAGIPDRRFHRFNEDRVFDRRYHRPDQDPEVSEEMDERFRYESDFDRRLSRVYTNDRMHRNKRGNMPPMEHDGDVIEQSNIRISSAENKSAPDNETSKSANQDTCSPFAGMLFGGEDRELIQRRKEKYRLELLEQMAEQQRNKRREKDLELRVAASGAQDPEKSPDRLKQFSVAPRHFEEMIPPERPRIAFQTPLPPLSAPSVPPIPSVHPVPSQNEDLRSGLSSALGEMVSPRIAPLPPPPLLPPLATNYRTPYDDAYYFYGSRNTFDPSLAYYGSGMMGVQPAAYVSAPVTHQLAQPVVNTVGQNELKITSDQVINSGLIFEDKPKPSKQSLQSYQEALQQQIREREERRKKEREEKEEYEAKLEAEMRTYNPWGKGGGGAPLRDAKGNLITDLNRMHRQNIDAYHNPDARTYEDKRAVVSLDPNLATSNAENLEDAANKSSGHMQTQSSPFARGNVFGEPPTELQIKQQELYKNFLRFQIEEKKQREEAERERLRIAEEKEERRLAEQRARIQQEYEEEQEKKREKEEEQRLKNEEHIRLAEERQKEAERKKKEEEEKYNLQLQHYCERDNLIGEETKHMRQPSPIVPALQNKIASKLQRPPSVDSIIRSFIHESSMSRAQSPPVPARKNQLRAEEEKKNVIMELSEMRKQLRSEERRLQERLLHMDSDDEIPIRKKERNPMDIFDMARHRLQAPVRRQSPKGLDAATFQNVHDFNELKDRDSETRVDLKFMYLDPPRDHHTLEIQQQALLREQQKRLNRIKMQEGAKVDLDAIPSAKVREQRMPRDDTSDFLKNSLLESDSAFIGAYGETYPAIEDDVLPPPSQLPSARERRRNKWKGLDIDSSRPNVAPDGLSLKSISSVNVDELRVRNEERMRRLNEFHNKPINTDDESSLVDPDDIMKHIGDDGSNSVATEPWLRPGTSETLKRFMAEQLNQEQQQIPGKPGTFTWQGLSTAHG
UniProt Q08257: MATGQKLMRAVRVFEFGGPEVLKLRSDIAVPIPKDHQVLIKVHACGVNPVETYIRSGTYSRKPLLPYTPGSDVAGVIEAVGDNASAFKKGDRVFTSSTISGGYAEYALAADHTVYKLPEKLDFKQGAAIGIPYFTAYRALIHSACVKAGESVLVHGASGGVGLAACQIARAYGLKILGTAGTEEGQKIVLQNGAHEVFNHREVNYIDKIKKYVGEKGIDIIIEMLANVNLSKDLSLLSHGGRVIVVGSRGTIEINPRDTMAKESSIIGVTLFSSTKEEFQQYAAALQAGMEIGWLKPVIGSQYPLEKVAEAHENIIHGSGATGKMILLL
UniProt P08574: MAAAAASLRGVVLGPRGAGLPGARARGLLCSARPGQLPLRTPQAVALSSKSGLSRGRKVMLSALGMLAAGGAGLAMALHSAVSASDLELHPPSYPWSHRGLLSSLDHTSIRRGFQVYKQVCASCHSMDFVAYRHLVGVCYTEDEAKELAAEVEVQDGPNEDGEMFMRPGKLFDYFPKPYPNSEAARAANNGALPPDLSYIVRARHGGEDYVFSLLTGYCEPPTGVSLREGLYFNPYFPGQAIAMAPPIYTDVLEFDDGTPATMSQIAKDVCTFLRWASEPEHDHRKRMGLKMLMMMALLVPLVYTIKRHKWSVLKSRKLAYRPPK
UniProt P09603: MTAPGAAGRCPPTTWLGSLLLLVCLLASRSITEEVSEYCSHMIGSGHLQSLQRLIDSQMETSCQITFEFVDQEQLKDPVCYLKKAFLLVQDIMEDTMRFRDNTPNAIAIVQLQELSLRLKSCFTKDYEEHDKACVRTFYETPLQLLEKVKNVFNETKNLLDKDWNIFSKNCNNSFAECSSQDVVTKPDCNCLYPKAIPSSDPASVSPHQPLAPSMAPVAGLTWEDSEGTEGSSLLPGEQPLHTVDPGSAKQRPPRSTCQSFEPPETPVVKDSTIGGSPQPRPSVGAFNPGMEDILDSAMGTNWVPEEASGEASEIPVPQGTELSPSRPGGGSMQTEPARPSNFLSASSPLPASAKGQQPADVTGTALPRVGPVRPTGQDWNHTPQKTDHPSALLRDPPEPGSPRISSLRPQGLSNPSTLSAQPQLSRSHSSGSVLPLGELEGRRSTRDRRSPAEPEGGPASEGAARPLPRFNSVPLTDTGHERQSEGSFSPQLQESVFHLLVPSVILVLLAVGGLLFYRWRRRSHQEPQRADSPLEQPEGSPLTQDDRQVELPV
UniProt P10619: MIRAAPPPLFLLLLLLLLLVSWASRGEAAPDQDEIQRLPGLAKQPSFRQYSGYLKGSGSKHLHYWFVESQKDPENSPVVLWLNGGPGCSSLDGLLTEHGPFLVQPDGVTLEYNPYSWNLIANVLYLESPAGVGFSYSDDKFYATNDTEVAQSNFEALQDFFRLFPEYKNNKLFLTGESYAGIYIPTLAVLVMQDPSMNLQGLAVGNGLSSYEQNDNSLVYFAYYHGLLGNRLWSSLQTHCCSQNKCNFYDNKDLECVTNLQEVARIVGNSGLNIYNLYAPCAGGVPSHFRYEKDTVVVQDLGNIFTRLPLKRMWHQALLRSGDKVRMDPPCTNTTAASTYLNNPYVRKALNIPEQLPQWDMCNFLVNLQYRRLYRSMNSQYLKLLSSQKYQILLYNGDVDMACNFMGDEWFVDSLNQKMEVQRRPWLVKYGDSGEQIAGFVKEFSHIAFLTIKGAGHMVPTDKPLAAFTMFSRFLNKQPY
UniProt Q9UBX1: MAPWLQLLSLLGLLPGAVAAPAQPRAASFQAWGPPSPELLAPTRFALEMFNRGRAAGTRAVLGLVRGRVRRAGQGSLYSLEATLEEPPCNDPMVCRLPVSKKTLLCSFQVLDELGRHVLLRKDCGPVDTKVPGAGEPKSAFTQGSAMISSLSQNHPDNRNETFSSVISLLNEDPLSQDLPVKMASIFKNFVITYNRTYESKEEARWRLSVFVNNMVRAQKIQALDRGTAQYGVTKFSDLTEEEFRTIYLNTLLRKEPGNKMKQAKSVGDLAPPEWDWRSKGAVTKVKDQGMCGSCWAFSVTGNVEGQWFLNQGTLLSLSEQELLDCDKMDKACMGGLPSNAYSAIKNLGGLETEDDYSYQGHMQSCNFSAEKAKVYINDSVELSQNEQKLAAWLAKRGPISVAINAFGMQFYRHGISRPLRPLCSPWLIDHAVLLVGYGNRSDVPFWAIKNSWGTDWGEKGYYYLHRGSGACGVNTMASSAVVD
UniProt Q69YN2: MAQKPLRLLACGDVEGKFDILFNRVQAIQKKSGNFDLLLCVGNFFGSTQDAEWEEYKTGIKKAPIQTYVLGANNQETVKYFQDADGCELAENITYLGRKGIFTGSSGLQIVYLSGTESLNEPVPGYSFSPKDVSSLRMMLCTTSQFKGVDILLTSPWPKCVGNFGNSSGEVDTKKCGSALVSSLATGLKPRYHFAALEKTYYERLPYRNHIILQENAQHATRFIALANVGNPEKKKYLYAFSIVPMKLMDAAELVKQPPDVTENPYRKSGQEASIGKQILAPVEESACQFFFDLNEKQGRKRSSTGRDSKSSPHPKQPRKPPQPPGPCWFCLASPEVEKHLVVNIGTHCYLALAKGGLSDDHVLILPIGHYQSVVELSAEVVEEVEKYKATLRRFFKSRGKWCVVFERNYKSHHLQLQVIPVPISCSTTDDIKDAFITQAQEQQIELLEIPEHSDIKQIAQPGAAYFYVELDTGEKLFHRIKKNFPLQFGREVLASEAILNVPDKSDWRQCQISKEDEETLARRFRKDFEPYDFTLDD
UniProt Q9NTM9: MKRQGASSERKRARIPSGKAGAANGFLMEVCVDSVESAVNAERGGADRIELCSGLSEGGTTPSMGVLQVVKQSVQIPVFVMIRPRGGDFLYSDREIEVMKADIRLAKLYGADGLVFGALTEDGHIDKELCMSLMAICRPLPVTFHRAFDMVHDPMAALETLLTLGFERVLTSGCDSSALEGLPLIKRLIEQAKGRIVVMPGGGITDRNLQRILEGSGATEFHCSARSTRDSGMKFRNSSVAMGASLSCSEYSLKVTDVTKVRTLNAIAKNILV
UniProt Q9UBR2: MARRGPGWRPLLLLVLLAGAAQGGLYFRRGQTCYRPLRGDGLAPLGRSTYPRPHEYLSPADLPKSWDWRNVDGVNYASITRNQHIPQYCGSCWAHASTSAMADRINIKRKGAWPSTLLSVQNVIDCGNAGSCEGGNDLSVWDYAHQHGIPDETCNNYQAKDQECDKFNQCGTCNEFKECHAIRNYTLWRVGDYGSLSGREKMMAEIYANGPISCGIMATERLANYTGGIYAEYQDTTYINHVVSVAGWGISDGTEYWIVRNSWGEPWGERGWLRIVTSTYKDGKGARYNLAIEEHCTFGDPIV
UniProt O60888: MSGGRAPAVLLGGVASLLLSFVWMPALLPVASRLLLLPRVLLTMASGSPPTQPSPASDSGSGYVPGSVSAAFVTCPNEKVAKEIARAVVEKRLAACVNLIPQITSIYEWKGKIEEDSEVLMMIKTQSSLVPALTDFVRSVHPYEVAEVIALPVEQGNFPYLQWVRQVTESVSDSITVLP
UniProt P49674: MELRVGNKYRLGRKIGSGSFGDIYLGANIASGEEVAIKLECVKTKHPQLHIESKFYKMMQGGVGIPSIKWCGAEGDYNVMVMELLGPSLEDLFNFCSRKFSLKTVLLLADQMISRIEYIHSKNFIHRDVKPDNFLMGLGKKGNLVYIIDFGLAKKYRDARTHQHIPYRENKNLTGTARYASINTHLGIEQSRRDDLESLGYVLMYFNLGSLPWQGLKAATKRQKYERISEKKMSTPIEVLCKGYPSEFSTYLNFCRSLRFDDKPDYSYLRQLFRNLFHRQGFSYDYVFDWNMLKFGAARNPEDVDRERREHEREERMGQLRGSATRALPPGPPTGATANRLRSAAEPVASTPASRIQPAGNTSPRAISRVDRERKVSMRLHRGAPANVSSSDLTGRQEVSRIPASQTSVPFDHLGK

Legend:
Assay in all cases: log2 fold change, soluble protein after heating vs DMSO (PISA); higher = thermal stabilisation; K562 lysate, 10 uM; active = over 0.2 and 3.5 SD of the protein, either way, in both replicates (recomputed)
[1] = compound: CN1CC[C@H](c2c(O)cc(O)c3c(=O)cc(-c4ccccc4Cl)oc23)[C@H](O)C1 [alvocidib]
Method in brief: (§1)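 The values are log-two fold changes in thermal stability compared with solvent controls and come from duplicates. They were obtained by TMTpro 16plex LC-MS/MS, with channel sums equalised, on the supernatant after 21,000xg for 90 min. That supernatant came from crude K562 extract at 1 mg/mL protein treated with 10 μM compound for 30 min, heated for 3 min across 48°C-58°C, pooled and brought to 0.5% NP-40 at 4°C.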

[2] = compound: CN1CCc2c(c3ccccc3n2Cc2ccc(C(=O)NO)cc2)C1 [Tubastatin A]
Method in brief: as §1

[3] = compound: CNC(=O)C1=CC=CC=C1NC2=NC(=NC=C2Cl)NC3=C(C=C(C=C3)N4CCOCC4)OC
Method in brief: as §1

[4] = compound: CNC(=O)c1ccc(Nc2ncc(C(F)(F)F)c(NCc3nccnc3N(C)S(C)(=O)=O)n2)cc1 [defactinib]
Method in brief: as §1

[5] = compound: CNc1nc(-c2ccc3c(N)n[nH]c3c2)cc(N2C[C@@H](C(=O)NC3CCCCC3)CC[C@H]2C)n1
Method in brief: as §1

[6] = compound: COC(=O)N[C@@H](C)CNc1nccc(-c2cn(C(C)C)nc2-c2cc(Cl)cc(NS(C)(=O)=O)c2F)n1 [encorafenib]
Method in brief: as §1

[7] = compound: COC(=O)[C@H](CCSC)NC(=O)C1=C(C=C(C=C1)NC[C@H](CS)N)C2=CC=CC=C2
Method in brief: as §1

[8] = compound: COc1cc(Nc2ncc3c(n2)-c2ccc(Cl)cc2C(c2c(F)cccc2OC)=NC3)ccc1C(=O)O [alisertib]
Method in brief: as §1

[9] = compound: COc1cc2nc(-c3cc(F)ccc3O)nc(N[C@@H]3CNC[C@H]3C(C)(C)O)c2cc1OC
Method in brief: as §1

[10] = compound: COc1cc2ncnc(Nc3ccc(F)c(Cl)c3)c2cc1OCCCN1CCOCC1 [gefitinib]
Method in brief: as §1

Measured: log2 fold change

CRYZL1 (UniProt O95825)
inactive: [1] 0.028 | [2] 0.078 | [3] 0.015 | [4] -0.007 | [5] 0.029 | [6] -0.024 | [7] -0.032 | [8] -0.047 | [9] 0.034 | [10] -0.015

CYFIP2 (UniProt Q96F07)
inactive: [1] -0.008 | [2] 0.036 | [3] -0.019 | [4] -0.015 | [5] -0.011 | [6] 0.014 | [7] -0.033 | [8] 0.004 | [9] 0.011 | [10] 0.004

CYB5B (UniProt O43169)
inactive: [1] 0.04 | [2] 0.092 | [3] 0.047 | [4] 0.032 | [5] 0.129 | [6] 0.038 | [7] 0.012 | [8] 0.048 | [9] -0.005 | [10] -0.102

CWC15 (UniProt Q9P013)
inactive: [1] 0.03 | [2] 0.09 | [3] 0.016 | [4] -0.001 | [5] 0.031 | [6] -0.028 | [7] -0.001 | [8] -0.073 | [9] 0 | [10] 0.014

CTNNBL1 (UniProt Q8WYA6)
inactive: [1] 0.027 | [2] 0.148 | [3] -0.004 | [4] -0.015 | [6] 0.023 | [7] 0.101 | [8] -0.013 | [9] -0.027 | [10] 0.022
active: [5] 0.417

CTH (UniProt P32929)
inactive: [1] -0.002 | [2] 0.037 | [3] -0.009 | [4] -0.022 | [5] 0.019 | [6] -0.029 | [7] 0.001 | [8] -0.021 | [9] 0.012 | [10] -0.012

CYCS (UniProt P99999)
inactive: [1] -0.003 | [2] 0.027 | [3] 0.009 | [4] 0.04 | [5] 0.018 | [6] -0.004 | [7] -0.04 | [8] -0.019 | [9] -0.002 | [10] 0.003

CTSC (UniProt P53634)
inactive: [1] -0.108 | [2] 0.024 | [3] -0.009 | [4] 0.019 | [5] 0.037 | [6] 0.019 | [7] -0.059 | [8] -0.019 | [9] 0.004 | [10] 0.024

CYB5R4 (UniProt Q7L1T6)
inactive: [1] -0.048 | [2] -0.09 | [3] 0.019 | [4] -0.017 | [5] -0.023 | [6] 0.001 | [7] 0.049 | [8] 0.009 | [9] 0.014 | [10] 0.063

CSTF3 (UniProt Q12996)
inactive: [1] 0.047 | [2] -0.07 | [3] 0.01 | [4] 0.012 | [5] -0.037 | [6] 0.003 | [7] 0.027 | [8] 0.002 | [9] -0.015 | [10] 0.003

CTPS2 (UniProt Q9NRF8)
inactive: [1] -0.01 | [2] 0.015 | [3] -0.009 | [4] 0.01 | [5] -0.006 | [6] 0.01 | [7] -0.043 | [8] -0.017 | [9] 0.011 | [10] 0.011

CSPP1 (UniProt Q1MSJ5)
inactive: [1] -0.031 | [2] -0.03 | [3] -0.028 | [4] -0.086 | [5] 0.095 | [6] 0.119 | [7] -0.195 | [8] 0.027 | [9] 0.218 | [10] -0.054

CRYZ (UniProt Q08257)
inactive: [1] -0.022 | [2] 0.053 | [3] -0.007 | [4] -0.021 | [5] 0.017 | [6] 0.003 | [7] -0.007 | [8] -0.005 | [9] 0.013 | [10] -0.013

CYC1 (UniProt P08574)
inactive: [1] 0.034 | [2] -0.006 | [3] -0.002 | [4] 0.025 | [5] -0.084 | [6] 0.009 | [7] -0.063 | [8] 0.007 | [9] -0.058 | [10] -0.122

CSF1 (UniProt P09603)
inactive: [1] -0.004

CTSL (UniProt P07711)
inactive: [1] -0.028 | [2] 0.035 | [3] 0.001 | [4] 0.039 | [5] 0.079 | [6] 0 | [7] -0.008 | [8] 0.008 | [9] -0.004 | [10] -0.008

CTSA (UniProt P10619)
inactive: [1] -0.026 | [2] -0.03 | [3] -0.055 | [4] 0.053 | [5] -0.049 | [6] -0.021 | [7] 0.076 | [8] -0.066 | [9] -0.003 | [10] 0.018

CTSF (UniProt Q9UBX1)
inactive: [1] 0.142 | [2] -0.452 | [3] -0.147

CSDE1 isoform 4 (UniProt O75534)
inactive: [1] 0 | [2] -0.104 | [3] 0.01 | [4] 0 | [5] -0.014 | [6] -0.008 | [8] 0.004 | [9] -0.021 | [10] -0.014
active: [7] 0.209

CWF19L1 (UniProt Q69YN2)
inactive: [1] 0.021 | [2] -0.039 | [3] 0.013 | [4] 0.01 | [5] 0 | [6] 0.014 | [7] 0.013 | [8] 0.007 | [9] -0.017 | [10] -0.004

CUL4B (UniProt Q13620)
inactive: [1] -0.035 | [2] 0.005 | [3] -0.002 | [4] -0.001 | [5] 0.019 | [6] 0.002 | [7] -0.003 | [8] 0.003 | [9] 0.013 | [10] 0.024

8 consecutive records already listed, quoted:
CYC1 (UniProt P08574)
inactive: [1] 0.034 | [2] -0.006 | [3] -0.002 | [4] 0.025 | [5] -0.084 | [6] 0.009 | [7] -0.063 | [8] 0.007 | [9] -0.058 | [10] -0.122

CSF1 (UniProt P09603)
inactive: [1] -0.004

CTSL (UniProt P07711)
inactive: [1] -0.028 | [2] 0.035 | [3] 0.001 | [4] 0.039 | [5] 0.079 | [6] 0 | [7] -0.008 | [8] 0.008 | [9] -0.004 | [10] -0.008

CTSA (UniProt P10619)
inactive: [1] -0.026 | [2] -0.03 | [3] -0.055 | [4] 0.053 | [5] -0.049 | [6] -0.021 | [7] 0.076 | [8] -0.066 | [9] -0.003 | [10] 0.018

CTSF (UniProt Q9UBX1)
inactive: [1] 0.142 | [2] -0.452 | [3] -0.147

CSDE1 isoform 4 (UniProt O75534)
inactive: [1] 0 | [2] -0.104 | [3] 0.01 | [4] 0 | [5] -0.014 | [6] -0.008 | [8] 0.004 | [9] -0.021 | [10] -0.014
active: [7] 0.209

CWF19L1 (UniProt Q69YN2)
inactive: [1] 0.021 | [2] -0.039 | [3] 0.013 | [4] 0.01 | [5] 0 | [6] 0.014 | [7] 0.013 | [8] 0.007 | [9] -0.017 | [10] -0.004

CUL4B (UniProt Q13620)
inactive: [1] -0.035 | [2] 0.005 | [3] -0.002 | [4] -0.001 | [5] 0.019 | [6] 0.002 | [7] -0.003 | [8] 0.003 | [9] 0.013 | [10] 0.024

Following part.

CUTC (UniProt Q9NTM9)
inactive: [1] -0.012 | [2] 0.124 | [3] 0.012 | [4] 0.016 | [5] 0.053 | [6] -0.019 | [7] 0.124 | [8] 0.032 | [9] 0.003 | [10] -0.038

CTSZ (UniProt Q9UBR2)
inactive: [1] -0.034 | [2] 0.024 | [3] 0.005 | [4] -0.027 | [5] -0.037 | [6] -0.016 | [7] -0.065 | [8] 0 | [9] 0.005 | [10] 0.015

CYB5R2 (UniProt Q6BCY4)
inactive: [1] -0.054 | [2] 0.024 | [3] -0.009 | [4] 0 | [5] 0.023 | [6] -0.01 | [7] 0.02 | [8] -0.048 | [9] -0.003 | [10] 0.028

CUTA isoform 2 (UniProt O60888)
inactive: [1] 0.077 | [2] 0.007 | [3] 0.042 | [4] -0.12 | [5] 0.076 | [6] -0.014 | [7] -0.051 | [8] 0.054 | [9] -0.038 | [10] -0.118

CUSTOS (UniProt Q96C57)
inactive: [1] -0.033 | [2] -0.016 | [3] 0.029 | [4] -0.002 | [5] 0.026 | [6] 0.06 | [7] -0.044 | [8] 0.037 | [9] 0.004 | [10] -0.01

CSNK1E (UniProt P49674)
inactive: [1] 0.021 | [2] -0.159 | [3] 0.129 | [4] -0.017 | [5] 0.093 | [6] -0.032 | [7] 0.028 | [8] -0.034 | [9] 0.048 | [10] 0.012

CUL3 (UniProt Q13618)
inactive: [1] 0.024 | [2] 0.015 | [3] -0.001 | [4] -0.011 | [5] -0.013 | [6] 0.001 | [7] -0.101 | [8] 0.006 | [9] 0.009 | [10] 0.034

CRPPA (UniProt A4D126)
inactive: [1] -0.022 | [2] 0.032 | [3] -0.014 | [4] -0.015 | [5] -0.016 | [6] 0.012 | [7] -0.063 | [8] 0.003 | [9] 0.014 | [10] -0.006
